Reference: ChEMBL document CHEMBL4354836, “Heterotrimeric G Proteins as Therapeutic Targets in Drug Discovery” (J Med Chem, 2020)

Protein sequences, listed by entry. Tags and fused reporters are not part of them. Residues count along the entry.
UniProt P59768, 2-71 limits assumed: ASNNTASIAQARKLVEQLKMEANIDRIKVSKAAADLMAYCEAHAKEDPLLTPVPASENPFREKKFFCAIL
UniProt P62873, 2-340 limits assumed: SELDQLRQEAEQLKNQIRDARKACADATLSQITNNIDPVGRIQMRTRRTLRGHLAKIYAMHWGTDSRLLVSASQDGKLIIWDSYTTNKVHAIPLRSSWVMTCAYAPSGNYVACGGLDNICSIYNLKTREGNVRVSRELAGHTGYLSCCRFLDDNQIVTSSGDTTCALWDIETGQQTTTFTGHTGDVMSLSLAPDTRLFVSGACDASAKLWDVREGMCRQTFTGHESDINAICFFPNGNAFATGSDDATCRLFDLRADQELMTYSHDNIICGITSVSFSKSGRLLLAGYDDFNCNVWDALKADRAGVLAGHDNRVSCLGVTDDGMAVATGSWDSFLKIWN

Biological target: Guanine nucleotide-binding protein G(I)/G(S)/G(T) subunit beta-1/gamma-2 (Homo sapiens, UniProt P59768+P62873)
Experiment: Inhibition of G-protein beta1gamma2 (unknown origin) by flow cytometry
Assay type: protein-complex assay

Q: How did the IC50 turn out when `COc1cc2c(c(OC)c1OC)-c1ccc(OC)c(=O)cc1C(N)CC2` (stereo unspecified) was run?
A: Its IC50 is 5 µM.
